Data from PubChem BioAssay (NCATS).
Inconclusive results, whose numbers are uncertain, are shown with a selection of clear calls. For some of these results: Where the call is inconclusive, the potency comes from a doubtful curve fit. Calls of active or inactive are those of the source. Unless noted, calls come from the whole dose curve; as a rule, active = well fitted curve in the direction sought with a large enough effect; inconclusive = small, poorly fitted or top-dose-only effect, or another doubt; inactive = no such curve, though single readings can be large; an effect the other way counts as inactive or inconclusive.

Protein sequences, listed by entry. Tags and fused reporters are not part of them. Lines headed by an entry give the natural chain unless they say otherwise; changes in a name come on top.
UniProt Q99816: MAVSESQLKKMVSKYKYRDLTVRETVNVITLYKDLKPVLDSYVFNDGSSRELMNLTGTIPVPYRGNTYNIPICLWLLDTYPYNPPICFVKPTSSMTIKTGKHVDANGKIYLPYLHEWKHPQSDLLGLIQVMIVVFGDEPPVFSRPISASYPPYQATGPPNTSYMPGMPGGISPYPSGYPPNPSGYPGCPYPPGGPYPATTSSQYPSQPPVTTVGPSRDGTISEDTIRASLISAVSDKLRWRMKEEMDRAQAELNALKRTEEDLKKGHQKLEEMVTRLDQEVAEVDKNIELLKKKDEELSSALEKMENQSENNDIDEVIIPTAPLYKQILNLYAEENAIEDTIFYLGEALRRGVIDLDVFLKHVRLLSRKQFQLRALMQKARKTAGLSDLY
UniProt Q8WZA2: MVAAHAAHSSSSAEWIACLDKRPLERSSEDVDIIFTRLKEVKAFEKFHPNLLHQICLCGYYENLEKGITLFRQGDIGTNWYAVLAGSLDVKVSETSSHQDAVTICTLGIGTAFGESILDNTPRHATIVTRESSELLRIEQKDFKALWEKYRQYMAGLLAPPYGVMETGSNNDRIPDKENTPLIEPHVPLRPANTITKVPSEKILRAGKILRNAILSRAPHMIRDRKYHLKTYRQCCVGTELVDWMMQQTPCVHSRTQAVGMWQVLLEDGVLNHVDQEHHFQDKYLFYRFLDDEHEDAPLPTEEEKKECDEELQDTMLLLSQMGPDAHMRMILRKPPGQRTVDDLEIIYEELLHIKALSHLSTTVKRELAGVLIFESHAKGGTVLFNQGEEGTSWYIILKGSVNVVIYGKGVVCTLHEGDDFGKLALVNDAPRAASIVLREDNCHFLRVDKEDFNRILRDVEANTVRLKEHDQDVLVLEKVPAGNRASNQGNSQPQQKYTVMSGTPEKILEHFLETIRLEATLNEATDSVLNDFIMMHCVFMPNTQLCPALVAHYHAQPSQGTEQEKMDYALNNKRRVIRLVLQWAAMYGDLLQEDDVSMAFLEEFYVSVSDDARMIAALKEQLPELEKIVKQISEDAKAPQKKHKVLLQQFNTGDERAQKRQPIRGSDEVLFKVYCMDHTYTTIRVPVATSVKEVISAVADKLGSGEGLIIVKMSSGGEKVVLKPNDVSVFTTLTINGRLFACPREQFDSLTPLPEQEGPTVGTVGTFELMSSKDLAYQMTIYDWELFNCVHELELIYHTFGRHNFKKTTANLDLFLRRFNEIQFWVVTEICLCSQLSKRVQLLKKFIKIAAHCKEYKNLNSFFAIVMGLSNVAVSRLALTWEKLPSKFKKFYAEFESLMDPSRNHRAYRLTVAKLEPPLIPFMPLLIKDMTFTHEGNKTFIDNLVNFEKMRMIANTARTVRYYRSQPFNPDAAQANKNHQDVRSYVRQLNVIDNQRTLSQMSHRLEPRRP
UniProt P04150: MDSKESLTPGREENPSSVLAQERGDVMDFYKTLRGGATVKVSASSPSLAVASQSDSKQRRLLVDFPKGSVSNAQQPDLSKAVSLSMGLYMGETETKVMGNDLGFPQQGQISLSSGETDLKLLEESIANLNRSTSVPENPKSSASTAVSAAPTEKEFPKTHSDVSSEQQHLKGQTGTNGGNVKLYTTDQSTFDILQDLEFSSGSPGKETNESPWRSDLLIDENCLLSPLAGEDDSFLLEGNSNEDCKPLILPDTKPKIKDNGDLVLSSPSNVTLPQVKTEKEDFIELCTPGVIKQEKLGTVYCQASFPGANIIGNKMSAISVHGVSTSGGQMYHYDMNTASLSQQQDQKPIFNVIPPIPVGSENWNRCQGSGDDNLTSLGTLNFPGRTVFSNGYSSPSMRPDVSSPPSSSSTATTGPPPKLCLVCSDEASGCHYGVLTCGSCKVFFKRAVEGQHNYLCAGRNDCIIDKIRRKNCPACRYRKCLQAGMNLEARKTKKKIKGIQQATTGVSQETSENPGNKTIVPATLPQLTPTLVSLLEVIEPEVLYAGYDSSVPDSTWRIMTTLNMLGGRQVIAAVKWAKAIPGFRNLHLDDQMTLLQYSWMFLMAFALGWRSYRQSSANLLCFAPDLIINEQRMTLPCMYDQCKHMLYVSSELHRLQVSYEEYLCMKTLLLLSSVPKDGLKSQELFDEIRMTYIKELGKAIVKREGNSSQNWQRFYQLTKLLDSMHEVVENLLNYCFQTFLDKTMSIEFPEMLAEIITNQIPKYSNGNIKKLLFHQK
UniProt Q07343: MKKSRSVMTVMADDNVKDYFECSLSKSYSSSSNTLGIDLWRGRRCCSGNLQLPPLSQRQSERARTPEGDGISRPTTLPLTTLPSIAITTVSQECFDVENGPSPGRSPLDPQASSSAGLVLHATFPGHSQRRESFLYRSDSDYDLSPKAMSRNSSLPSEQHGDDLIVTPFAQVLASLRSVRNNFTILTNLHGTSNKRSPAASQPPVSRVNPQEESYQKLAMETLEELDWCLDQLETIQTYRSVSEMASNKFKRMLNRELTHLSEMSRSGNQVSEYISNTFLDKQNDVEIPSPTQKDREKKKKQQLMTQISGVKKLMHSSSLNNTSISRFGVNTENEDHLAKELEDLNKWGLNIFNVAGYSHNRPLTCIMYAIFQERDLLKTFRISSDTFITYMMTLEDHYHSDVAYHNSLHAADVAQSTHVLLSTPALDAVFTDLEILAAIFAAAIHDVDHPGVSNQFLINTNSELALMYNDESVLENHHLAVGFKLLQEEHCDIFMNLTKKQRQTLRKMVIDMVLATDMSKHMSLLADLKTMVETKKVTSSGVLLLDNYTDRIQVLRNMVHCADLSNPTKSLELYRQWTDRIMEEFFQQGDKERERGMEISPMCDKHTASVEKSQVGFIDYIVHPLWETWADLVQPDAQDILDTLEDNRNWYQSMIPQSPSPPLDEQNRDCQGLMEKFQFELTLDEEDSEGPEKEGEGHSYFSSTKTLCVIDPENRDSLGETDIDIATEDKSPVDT
UniProt O94782: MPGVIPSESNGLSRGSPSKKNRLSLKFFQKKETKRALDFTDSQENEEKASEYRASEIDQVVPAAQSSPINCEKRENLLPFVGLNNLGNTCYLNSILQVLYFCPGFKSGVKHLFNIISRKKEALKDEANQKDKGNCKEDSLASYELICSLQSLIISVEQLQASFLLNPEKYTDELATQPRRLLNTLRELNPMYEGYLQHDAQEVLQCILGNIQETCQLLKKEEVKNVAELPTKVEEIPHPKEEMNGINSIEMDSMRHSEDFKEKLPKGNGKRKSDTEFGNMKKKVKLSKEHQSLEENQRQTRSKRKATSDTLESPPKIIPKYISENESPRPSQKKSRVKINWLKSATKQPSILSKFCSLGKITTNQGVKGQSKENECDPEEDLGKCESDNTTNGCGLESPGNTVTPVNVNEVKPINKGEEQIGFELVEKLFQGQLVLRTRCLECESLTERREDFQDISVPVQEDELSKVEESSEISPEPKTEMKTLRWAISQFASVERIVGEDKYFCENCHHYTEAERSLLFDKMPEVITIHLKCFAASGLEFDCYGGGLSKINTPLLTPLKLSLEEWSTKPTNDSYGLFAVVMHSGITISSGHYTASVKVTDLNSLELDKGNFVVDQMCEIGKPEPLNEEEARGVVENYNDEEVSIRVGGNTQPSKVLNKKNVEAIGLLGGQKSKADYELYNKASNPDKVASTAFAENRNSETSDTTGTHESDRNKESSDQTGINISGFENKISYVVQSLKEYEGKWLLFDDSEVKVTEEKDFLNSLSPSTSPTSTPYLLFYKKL
UniProt P27695, whole entry, looked up: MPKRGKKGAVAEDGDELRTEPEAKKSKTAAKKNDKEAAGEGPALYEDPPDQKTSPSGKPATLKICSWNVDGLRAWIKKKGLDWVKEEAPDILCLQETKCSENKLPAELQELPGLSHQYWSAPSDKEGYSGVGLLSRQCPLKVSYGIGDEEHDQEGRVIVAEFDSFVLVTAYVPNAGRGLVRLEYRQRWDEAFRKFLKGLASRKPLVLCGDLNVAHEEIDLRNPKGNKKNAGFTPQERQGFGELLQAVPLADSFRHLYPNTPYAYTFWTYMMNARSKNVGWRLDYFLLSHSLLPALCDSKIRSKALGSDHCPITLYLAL
UniProt Q9Y253: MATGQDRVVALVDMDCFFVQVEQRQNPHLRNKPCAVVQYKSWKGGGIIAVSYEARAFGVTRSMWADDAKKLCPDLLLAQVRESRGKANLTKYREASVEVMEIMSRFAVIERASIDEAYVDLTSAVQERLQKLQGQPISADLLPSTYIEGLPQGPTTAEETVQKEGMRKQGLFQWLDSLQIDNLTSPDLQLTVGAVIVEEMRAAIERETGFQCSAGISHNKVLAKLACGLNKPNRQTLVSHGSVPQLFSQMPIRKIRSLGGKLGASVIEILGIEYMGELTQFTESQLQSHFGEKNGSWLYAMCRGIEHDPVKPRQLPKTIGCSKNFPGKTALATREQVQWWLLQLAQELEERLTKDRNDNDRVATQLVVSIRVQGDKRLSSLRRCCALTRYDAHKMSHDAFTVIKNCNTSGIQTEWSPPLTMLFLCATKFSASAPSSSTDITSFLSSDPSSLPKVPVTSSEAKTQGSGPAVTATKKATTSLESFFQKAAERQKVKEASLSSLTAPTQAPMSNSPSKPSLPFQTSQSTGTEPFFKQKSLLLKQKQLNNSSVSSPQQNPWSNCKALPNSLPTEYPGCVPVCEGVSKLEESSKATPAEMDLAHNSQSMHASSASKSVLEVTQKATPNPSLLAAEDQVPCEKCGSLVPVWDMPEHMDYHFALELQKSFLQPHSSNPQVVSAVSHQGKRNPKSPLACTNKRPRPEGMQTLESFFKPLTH

Key:
[1] = biological target: Tumor susceptibility gene 101 protein (Homo sapiens) (UniProt Q99816); assay: qHTS Assay for Iinhibitors of HIV-1 Budding by Blocking the Interaction of PTAP/TSG101: Hit Validation (AID 651600); note: potency is the fitted concentration of half-maximal effect; nearly all actives have a fitted effect of over 70% in size
Outline: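 Tsg101 binding domain 10 uM + FITC-PTAP peptide 50 nM (final), 10 mM HEPES pH 7.5/0.15 M NaCl/0.01% Tween 20/3 mM EDTA/0.1 mM TCEP; 20 min RT; FP read, FITC filters.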

[2] = biological target: Rap guanine nucleotide exchange factor 3 (Homo sapiens) (UniProt O95398); assay: Confirmatory qHTS for agonist of cAMP-regulated guanine nucleotide exchange factor 3 (EPAC1) (AID 1645881); conditions: EPAC1 Rap1B BODIPY-GDP exchange fluorescence; activation: at 154 µM (top of the series), 100% = cAMP control response; note: nearly all actives have a fitted effect of over 75% in size; note: potency is the fitted concentration of half-maximal effect;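 for activation: EPAC1 catalysed release of BODIPY-GDP from Rap1B seen as fluorescence loss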
[3] = biological target: Rap guanine nucleotide exchange factor 4 (Homo sapiens) (UniProt Q8WZA2); assay: Confirmatory qHTS for agonist of cAMP-regulated guanine nucleotide exchange factor 4 (EPAC2) (AID 1645884);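 note: nucleotide exchange releases bodipy-GDP from Rap1 and this lowers its fluorescence; potency is the fitted concentration of half-maximal effect; nearly all actives have a fitted effect of over 65% in size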
[4] = biological target: Rap guanine nucleotide exchange factor 4 (Homo sapiens) (UniProt Q8WZA2); assay: Confirmatory qHTS for antagonist of cAMP-regulated guanine nucleotide exchange factor 4 (EPAC2) (AID 1645885); conditions: activity change, negative = inhibition: at 12.7 µM (top of the series) unless noted; note: nearly all actives have a fitted effect of over 25% in size; note: potency is the fitted concentration of half-maximal effect; for activity change, negative = inhibition: % is set by controls: 0 for no effect and ±100 for the full control effect
[5] = biological target: Rap guanine nucleotide exchange factor 3 (Homo sapiens) (UniProt O95398); assay: Counterscreen qHTS for agonist of cAMP-regulated guanine nucleotide exchange factor 3 (EPAC1) (AID 1645889); conditions: EPAC1 Rap1B-BODIPY-GDP exchange, fluorescence; activation: at 154 µM (top of the series) unless noted; note: nearly all actives have a fitted effect of over 40% in size; note: potency is the fitted concentration of half-maximal effect; for activation: % of control where 0% means no effect
Outline: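 Measured: fluorescence of BODIPY-GDP bound to Rap1B, which falls as exchange proceeds. Conditions include 50 uM competing GDP, 5 and 30 min reads, and a later cAMP challenge for antagonist detection.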

[6] = AP1 Signaling Pathway (AID 357; active = well fitted curve in either direction with a large enough effect, not every such curve was filed as active; inconclusive = small, poorly fitted or top-dose-only effect, or another doubt;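 note: ME-180 reporter cells stimulated with EGF at its EC50 level; % is set by controls: 0 for no effect and ±100 for the full control effect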); conditions: ME-180 (cervical carcinoma) AP-1-bla reporter, EGF-induced, beta-lactamase ratio, 5 h; at 17.2 µM (top of the series) unless noted
Outline: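 A ratiometric CCF4 readout (405 nm excitation; 460 and 530 nm emission) quantified AP-1-driven beta-lactamase in ME-180 cells after 5 h with compound and EC50 EGF; AC50 values were derived for activators and inhibitors.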

[7] = NFAT Signaling Pathway (AID 444; active = well fitted curve in either direction with a large enough effect, not every such curve was filed as active; inconclusive = small, poorly fitted or top-dose-only effect, or another doubt;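 note: carbachol stimulus at about its EC50 of 1 µM final; % is set by controls: 0 for no effect and ±100 for the full control effect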); conditions: Jurkat NFAT-bla M1, carbachol, beta-lactamase ratio, 5 h; at 17.2 µM (top of the series) unless noted
Outline: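 Jurkat cells carrying an NFAT-driven β-lactamase reporter and co-transfected muscarinic M1 receptor were treated with compound plus carbachol (1 uM final, an EC50 level) for 5 h at 37 °C. CCF4 loading followed for 1 h at RT; 460/530 nm ratio gave %activity.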

[8] = biological target: Glucocorticoid receptor (Homo sapiens) (UniProt P04150); assay: GR-GFP Redistribution (AID 450;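 active = compounds whose dose series gives a full or clear partial fitted curve of increased nuclear translocation; inconclusive = weak partial curve or effect only at the top dose; inactive = no dose-dependent translocation response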; note: potency is the fitted concentration of half-maximal effect); conditions: U2OS GR-GFP nuclear translocation, laser cytometry, 2 h
[9] = biological target: Mitogen-activated protein kinase 10 (Mus musculus) (UniProt Q61831); assay: JNK3 AlphaScreen Assay (AID 530; active = well fitted curve in either direction with a large enough effect, not every such curve was filed as active; inconclusive = small, poorly fitted or top-dose-only effect, or another doubt;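 note: kinase came from lysate of stimulated human HepG2 cells; potency is the fitted concentration of half-maximal effect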); conditions: JNK3 lysate, c-Jun phosphorylation; activity change, negative = inhibition: at 57.1 µM (top of the series)
Outline: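 Inhibitors reduce antibody binding to phosphorylated biotin-cJun, lowering AlphaScreen luminescence. Lysates from HepG2 cells pre-activated by IL-1beta plus TNF-alpha supplied JNK3; compounds were titrated.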

[10] = biological target: 3',5'-cyclic-AMP phosphodiesterase 4B (Homo sapiens) (UniProt Q07343); assay: qHTS Assay for Inhibitors of PDE-IV (AID 607; active = well fitted activation curve with a large enough effect in the main read-out, with a control signal flat, not every such curve was filed as active; inconclusive = small, poorly fitted or top-dose-only effect, or effect the other way, or a change in a side signal; note: potency is the fitted concentration of half-maximal effect); conditions: HEK293 ACTOne CNG channel cells, membrane potential fluorescence; activation (PDE inhibition): at 22.9 µM (top of the series)
Outline: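 The readout is membrane depolarisation from a cAMP-sensing CNG channel, detected with a potential dye at ex 535/em 590. Cells were HEK293-derived (endogenous PDE-IV) at 1000 cells/well, titrated up to 22.9 uM final.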

[11] = biological target: Ubiquitin carboxyl-terminal hydrolase 1 (Homo sapiens) (UniProt O94782); assay: Inhibitors of USP1/UAF1: Pilot qHTS (AID 504865); note: potency is the fitted concentration of half-maximal effect; nearly all actives have a fitted effect of over 35% in size
Outline: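 1nM USP1/UAF1 + cpd, 15 min RT; start w/ Ub-Rho 150nM final; kinetic FL 480/540 nm, 6 reads q60 s. Buffer 50mM HEPES pH 7.8, 0.5mM EDTA, 1mM TCEP, 0.01% Tween-20, 0.1 mg/ml BSA.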

[12] = biological target: Endonuclease 4 (Escherichia coli (strain K12)) (UniProt P0A6C1); assay: Counterscreen for APE1 Inhibitors: qHTS Assay for Inhibitors of Endonuclease IV (AID 2565); note: potency is the fitted concentration of half-maximal effect
Outline: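 Concentration-response counterscreen run identically to the APE1 assay: 15 min room-temperature preincubation of 2 nM enzyme with compound, reaction started with 50 nM quenched abasic DNA, progress taken from kinetic fluorescence.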

[13] = biological target: DNA repair nuclease/redox regulator APEX1 (Homo sapiens) (UniProt P27695); assay: qHTS FP-Based Assay for Inhibitors of the Human Apurinic/apyrimidinic Endonuclease 1 (APE1) (AID 2573); note: potency is the fitted concentration of half-maximal effect
[14] = biological target: DNA polymerase eta (Homo sapiens) (UniProt Q9Y253); assay: qHTS for Inhibitors of Polymerase Eta: Confirmatory Assay for Cherry-picked Compounds (AID 720502); conditions: Pol eta primer extension, TAMRA/BHQ fluorescence, 10 min; note: potency is the fitted concentration of half-maximal effect
Outline: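 Pol eta 10 nM; substrate 50 nM final (unlabeled primer, TAMRA reporter, BHQ-2 template); preincub. 15 min RT; reads t=0 and t=10 min at ex525/em598.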

[15] = qHTS Assay for Inhibitors of Fructose-1,6-bisphosphate Aldolase from Giardia Lamblia: Giardia lamblia growth inhibition (AID 2785); conditions: Giardia lamblia trophozoite growth inhibition; activity change, negative = inhibition: at 57.5 µM (top of the series); note: potency is the fitted concentration of half-maximal effect; nearly all actives have a fitted effect of over 70% in size
Outline: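 G. lamblia WB trophozoites (100 cells/well) in modified TYI-S-33 medium, pH 7.0, were exposed to pin-transferred compounds or DMSO for 48 h at 37C in sealed bags. Viability was read as ATPlite luminescence after 20 min at room temperature.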

[16] = qHTS Assay for Inhibitors of Fructose-1,6-bisphosphate Aldolase from Giardia Lamblia: Mammalian cellular toxicity (AID 2786);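 note: compound exposure lasted 48 h before reading; % is set by controls: 0 for no effect and ±100 for the full control effect; nearly all actives have a fitted effect of over 60% in size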
Outline: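 Chinese hamster ovary cells (250/well, DMEM with 10% FBS and penicillin/streptomycin) were exposed to compounds for 48 h at 37 °C, 5% CO2. Viability was taken as cellular ATP content, read with ATPlite reagent after 20 min.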

O=c1oc2cc(O)ccc2cc1-c1nc2c(s1)CCc1ccccc1-2
Potency [1]: inconclusive: 13 µM [inhibitor, single point]
Potency [2]: inconclusive: 89.1 µM [activator, single point]
Potency [3]: active: 100 µM

CCCCOc1ccc(NS(=O)(=O)c2ccc(-n3cnnn3)cc2)cc1
Potency [2]: inactive
Potency [4]: inconclusive: 0.953 µM [inhibitor, full curve, poor fit]
activation [5]: inconclusive: 55.5% [activator]

C(=C(c1ccccc1)c1ccccc1)c1ccccn1
Potency [2]: inconclusive: 79.4 µM [activator, partial curve, poor fit]
Potency [4]: active: 84.9 µM

COc1ccc(/C=C2\C(=O)NC(=O)c3ccccc32)cc1OC
activation [2]: inconclusive: 17.1% [activator]
Potency [4]: inconclusive: 95.3 µM [inhibitor, single point]
Potency [5]: inconclusive: 0.708 µM [activator, full curve]

O=C(NCCOc1ccc(F)cc1)c1ccccc1SCc1ccccc1
Potency [2]: inconclusive: 20 µM [activator, partial curve, poor fit]
Potency [4]: inconclusive: 3.38 µM [inhibitor, partial curve]
Potency [5]: inconclusive: 7.08 µM [activator, partial curve, poor fit]

COc1ccc(OC)c(NC(=S)N2c3ccccc3CC2C)c1 (stereo not given)
Potency [2]: inconclusive: 63.1 µM [activator, partial curve, poor fit]
Potency [4]: inactive
activation [5]: inconclusive: 42.8% [activator] [at 30.8 µM]

O=C(Cc1nc2ccccc2[nH]c1=O)c1ccccc1
Potency [1]: inconclusive: 32.6 µM [inhibitor, single point]
Potency [2]: inconclusive: 112 µM [activator, partial curve, poor fit]
Potency [3]: active: 100 µM
Potency [5]: inactive

CCC(NC(=O)Nc1ncccc1C)(C(F)(F)F)C(F)(F)F
activity change, negative = inhibition [6]: inactive: 11.9%

CCN(CC)c1ccc2cc(-c3nnc(-c4ccncc4)o3)c(=O)oc2c1
activity change, negative = inhibition [6]: inconclusive: -34.3% [inhibitor]
activity change, negative = inhibition [7]: inconclusive: -47.6% [inhibitor]
Potency [8]: active: 3.51 µM

Cc1sc(N)c(C(=O)c2cccc(C(F)(F)F)c2)c1C
Potency [9]: inconclusive: 31.6 µM [inhibitor, single point]
Potency [10]: inconclusive: 4.77 µM [activator, full curve, poor fit]
Potency [11]: active: 50.1 µM

CCNc1ccc2noc3c2c1C(=O)c1ccccc1-3
Potency [12]: active: 12.6 µM
Potency [13]: active: 0.794 µM
Potency [14]: active: 75.7 µM

NC(=O)c1c(NC(=O)c2ccccc2)sc2c1CCN(Cc1ccccc1)C2
Potency [15]: inconclusive: 6.31 µM [inhibitor, single point]
Potency [16]: inactive

COCCN(CCOC)Cc1cc(=O)oc2cc(OC)c(Cl)cc12
Potency [2]: inactive
activation [5]: inconclusive: 51.2% [activator] [at 30.8 µM]

NC(=O)c1cc2ccc(O)cc2oc1=NCc1ccccc1
Potency [2]: active: 112 µM
Potency [5]: inconclusive: 39.8 µM [activator, partial curve, poor fit]

Cc1cc2nc3c(=O)[nH]c(=O)[nH]c3nc2c([N+](=O)[O-])c1N
Potency [2]: inconclusive: 112 µM [activator, partial curve, poor fit]
Potency [5]: active: 56.2 µM

Cc1cccc(N2CCCC2=Nc2ccc(Br)cc2C#N)c1
Potency [2]: inconclusive: 126 µM [activator, single point]
Potency [5]: inactive

NC(=O)c1ccsc1NC(=O)CS(=O)(=O)c1ccc(F)cc1
Potency [2]: inactive
Potency [5]: inactive

CCCCn1nnnc1C(c1cc2ccccc2o1)N1CCCC1 (stereo not given)
Potency [2]: inactive
Potency [5]: inconclusive: 7.08 µM [activator, partial curve, poor fit]

CN(C)c1ccc(/C=C/C(=O)c2cccc(Br)c2)cc1
Potency [2]: inconclusive: 100 µM [activator, partial curve, poor fit]
Potency [5]: inconclusive: 12.6 µM [activator, partial curve, poor fit]

COC(=O)c1cc2ccccc2n1S(=O)(=O)c1ccccc1
Potency [2]: inconclusive: 100 µM [activator, partial curve, poor fit]
Potency [5]: inconclusive: 11.2 µM [activator, full curve, poor fit]

O=c1oc2ccc(Cl)cc2nc1/C=C(\O)c1cccs1
Potency [2]: inconclusive: 89.1 µM [activator, partial curve, poor fit]
activation [5]: inactive: 11.4% [at 30.8 µM]

Cc1ccc2nc(/C(C#N)=C\c3ccc(N4CCOCC4)o3)[nH]c2c1
Potency [2]: inconclusive: 112 µM [activator, partial curve, poor fit]
Potency [5]: inconclusive: 20 µM [activator, single point]

CC1CCN(C2(O)C(=O)Nc3ccc(Br)cc32)CC1 (stereo not given)
Potency [2]: inconclusive: 141 µM [activator, single point]
Potency [5]: inactive
